The experiment in a line: qHTS Assay to Find Inhibitors of Chronic Active B-Cell Receptor Signaling. To be noted: ABC-DLBCL IkBa-CBG/CBR reporter, luminescence ratio (green luciferase fused to IkBa over red control in TMD8 lymphoma cells), 4 h. The essentials: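 TMD8 ABC-DLBCL cells carrying doxycycline-inducible green luciferase fused to IkappaBalpha plus unfused red luciferase were exposed to compounds (up to 46 uM) for 4 hrs at 37C. Activity came from the overlap-corrected green/red luminescence ratio.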
(In general: In qHTS, concentration-response curves come from the screen itself.)

Setting [1] is: measured here: CBR red luminescence, cell number.
Where [2] appears, read: measured here: IkBa-CBG green luminescence.

Data on 63 compounds can be found in PubChem BioAssay AID493014 (National Center for Advancing Translational Sciences (NCATS), 2011).

Each structure is given as a SMILES string. Some of the results follow. Shown are side measurements of this screen, not its main read-out; they come without a call. Compounds called inactive in the main read-out are mostly missing here. The note in brackets gives the kind of curve behind each potency; many fits are weak.

As usually defined, the AC50 is the concentration giving half of the maximal activity seen.

In the case of `NCCC(=O)N1c2ccccc2Sc2ccc(Cl)cc21`, the half-maximal activity concentration (AC50) under setting [1] was 22.4 µM [falling, single point]. On the same count and under the same terms, under `COc1cc(C=C2C(=O)c3ccccc3C2=O)cc(OC)c1` stands 35.5 µM [falling, single point]; under `Cc1ccc(CNC(=O)c2nnn(-c3cccc(C)c3)c2N)cc1`, 12.6 µM [falling, partial curve]. For the compound `CCC[C@@H](CN[C@@H](CNC)[C@H](C)CC)NCC1CCC(C(C)(C)C)CC1` (stereo not given in full), the half-maximal activity concentration (AC50) under setting [1] is 35.5 µM [falling, single point].

With `CC[N+](CC)(CC#Cc1ccccc1)CC#Cc1ccccc1`, the concentration at half-maximal activity (AC50) under setting [1] was 3.55 µM [falling, single point]. In the case of `C=C1CCN(c2ccc(C(=O)NCc3ccc(C)cc3)cc2[N+](=O)[O-])CC1`, the concentration at half-maximal activity (AC50) under setting [2] was 17.8 µM [rising, partial curve, poor fit]. For `Cc1c(N/N=C(\C#N)C(=O)c2ccccc2)c(=O)n(-c2ccccc2)n1C`, the AC50 under setting [1] was 14.6 µM [falling, partial curve, poor fit]. Regarding `COc1ccc(CCNc2oc(COc3ccc(Br)cc3)nc2C#N)cc1OC`, the half-maximal activity concentration (AC50) under setting [1] was 29.1 µM [falling, single point]. Turning to `O=C(Nc1nc2c(s1)CCCC2)c1ccc2ncsc2c1`, the AC50 under setting [1] was 10.3 µM [falling, partial curve, poor fit].

Take `O=C(CN1CCN(c2ccccc2)CC1)c1c[nH]c2ccccc12`: under setting [1], the half-maximal activity concentration (AC50) is 10 µM [falling, partial curve]. On the same count and under the same terms, under `COCCn1cnc2c1c(=O)n(Cc1ccccc1C#N)c(=O)n2Cc1ccccc1` stands 6.31 µM [falling, partial curve, poor fit]; under `Cc1oc2c(c1C(=O)N1CCOCC1)C(=O)c1ccccc1C2=O`, 4.47 µM [falling, full curve, poor fit]; under `COc1ccc(NC(=O)CN2c3cccc4cccc(c34)S2(=O)=O)cc1`, 15.8 µM [falling, single point].

Regarding `O=C(NC(Cc1c[nH]c2ccccc12)C(=O)O)/C(=C\c1ccc2c(c1)OCO2)NC(=O)c1ccccc1` (stereo not given), the half-maximal activity concentration (AC50) under setting [1] was 0.1 µM [rising, full curve, poor fit].

As to `N#Cc1c(-c2ccccc2Cl)noc1/C=C/Nc1ccc(C(=O)O)cc1`, the concentration at half-maximal activity (AC50) under setting [1] is 0.316 µM [falling, full curve]. The same measure, in the same setting: under `CC(C)CCN(C(=O)Cc1ccc(Cl)c(Cl)c1)c1c(N)n(Cc2ccccc2)c(=O)[nH]c1=O` stands 6.31 µM [rising, single point]. Still for that read-out and setting: under `Cc1ccc(C(=O)N/N=C\C=C\c2ccccc2[N+](=O)[O-])cn1` stands 15.8 µM [falling, partial curve, poor fit]; under `Cc1ccccc1C(=O)c1cccn1CC(=O)NCC1CCCO1` (stereo not given), 8.91 µM [rising, partial curve, poor fit]; under `O=C(N/C(=C\c1ccc(F)cc1)C(=O)N1CCCCCC1)c1ccccc1`, 3.16 µM [rising, full curve, poor fit].

Turning to `CCc1cc2c(=O)n(CC(=O)NCCc3ccc(OC)c(OC)c3)cnc2s1`, the half-maximal activity concentration (AC50) under setting [1] was 35.5 µM [rising, single point]. The same measure, in the same setting: next, `CCn1c(COc2ccccc2)nnc1SCC(=O)Nc1cc(OC)ccc1OC`: 7.08 µM [falling, partial curve]; `COc1ccc(CN2CCCC(C(=O)Nc3cccc(-n4cccn4)c3)C2)c(F)c1` (stereo not given): 35.5 µM [falling, single point]; `C=CCNC(=S)Nc1cccc(N)c1`: 2.82 µM [rising, partial curve].

For the compound `O=C(OC1CCCCC1)c1ccc(NC(=O)C2CCCCC2)cc1`, under setting [1], the concentration at half-maximal activity (AC50) is 5.17 µM [rising, single point]. For `COc1cccc(-c2sc3ccccc3c2-c2ccc(OCCN(C)C)cc2)c1`, the AC50 under setting [1] is 29.1 µM [falling, single point]. Same read-out and setting: next, `Cc1ccccc1CNC(=O)C(=O)NCCC1CCCCN1S(=O)(=O)c1cccs1` (stereo not given): 16.4 µM [falling, partial curve, poor fit]. In the case of `CCN(CC)Cc1cc(CCNC(=O)c2ccc(Cl)cc2)ccc1O`, the half-maximal activity concentration (AC50) under setting [1] is 0.116 µM [rising, full curve, poor fit]. Take `CCOc1ncccc1C(=O)NNC(=O)c1csc(N2CCOCC2)n1`: under setting [1], the AC50 is 6.51 µM [rising, single point].

As to `CCOC(=O)c1c(C)[nH]c(C)c1S(=O)(=O)N1CCC(C(=O)N2CCN(c3cccc(C)c3)C(C)C2)CC1` (stereo not given), the AC50 under setting [1] is 25.1 µM [falling, single point].

For `COc1ccc(Nc2ncccc2C(=O)Nc2ccccc2)cc1`, the AC50 under setting [1] was 35.5 µM [falling, single point]. Still for that read-out and setting: next, `CCCCCC(=O)Nc1ccc2ccccc2c1`: 4.11 µM [rising, partial curve, poor fit]; `O=C(Nc1ccc(-c2nc3cccnc3s2)cc1)c1ccc(Cl)nc1`: 0.1 µM [rising, full curve, poor fit]. Still for that read-out and setting: under `Cc1ccc(NC(=O)CSc2ncnc3ccccc23)cc1S(=O)(=O)N1CCCCC1` stands 18.4 µM [falling, partial curve]; under `COc1ccc(C(=O)Cn2nc(CNc3ccc(Br)cc3)[n+]3c2CCCCC3)cc1`, 5.62 µM [rising, partial curve, poor fit]; under `O=C1CC(N(Cc2ccc3c(c2)OCO3)C(=O)Nc2ccc(F)cc2)C(=O)N1c1ccccc1` (stereo not given), 29.1 µM [falling, single point]. Still for that read-out and setting: under `CC(c1ccco1)N(C(=O)c1cccc(S(=O)(=O)N(C)C)c1)c1ccccn1` (stereo not given) stands 12.6 µM [rising, single point]; under `COc1ccc(C(=O)c2coc3ccc(O)cc23)cc1`, 1.58 µM [rising, partial curve, poor fit]. On to `Cc1ccc(-n2c3nc(=O)[nH]c(=O)c-3cc3cc([N+](=O)[O-])ccc32)cc1`, for which the concentration at half-maximal activity (AC50) is, setting by setting: under setting [1], 1.46 µM [falling, full curve, poor fit]; under setting [2], 6.51 µM [falling, single point].

Consider `COc1ccc(CNC(=O)NC(C)(C)c2cccc(C(C)(C)NC(=O)NCc3ccc(OC)cc3)c2)cc1`, for which the concentration at half-maximal activity (AC50) under setting [1] is 4.11 µM [falling, full curve]. Same read-out and setting: under `COc1ccccc1C/C(N)=N/OC(=O)c1cccs1` stands 12.6 µM [rising, single point]. Still for that read-out and setting: next, `O=C(Nc1cccc(Cl)c1Cl)c1cc(S(=O)(=O)N2CCCCC2)ccc1F`: 5.62 µM [falling, single point]; `COc1cc2cc(C(=O)N3CCN(c4ccccc4OC)CC3)[nH]c2cc1OC`: 22.4 µM [rising, single point]. Same read-out and setting: under `C/C=C\C=C\C(=O)Nc1cccc(C2=NOC3(C2)C[C@H](C(N)=O)N(C(=O)c2ccccc2C(=O)c2ccccc2)C3)c1` (stereo not given in full) stands 22.4 µM [falling, single point]. Turning to `O=C(CCNC(=O)c1ccc(Br)cc1)NNC(=O)c1ccccc1O`, the AC50 under setting [1] was 23.1 µM [falling, single point]. As to `COc1ccc(C(=O)c2ccc(N(C)C)cc2)c(OC)c1`, under setting [1], the concentration at half-maximal activity (AC50) is 0.112 µM [falling, full curve, poor fit]. On the same count and under the same terms, next, `CN(C)CCN(C(=O)c1ccccc1Cl)c1nc2c(Cl)cccc2s1`: 32.6 µM [falling, partial curve, poor fit]; `COc1ccc(OC)c(S(=O)(=O)N2CCNCC2)c1`: 6.31 µM [rising, partial curve, poor fit]. Still for that read-out and setting: next, `CCOc1ccc(NC(=O)CCC(=O)n2nc(C)cc2C)cc1`: 18.4 µM [falling, single point]; `COc1ccc(C(=O)/C(C#N)=N/Nc2cccc([N+](=O)[O-])c2)cc1`: 4.47 µM [rising, partial curve, poor fit]. On the same count and under the same terms, under `COc1cc(/C=N/NC2=NC(C)(C)Cc3ccccc32)cc(OC)c1OC` stands 0.447 µM [rising, full curve].

In the case of `COc1ccc(NC(=O)CN(C)C(=O)c2cc3c(s2)CCC3)cc1`, the AC50 under setting [1] was 14.6 µM [rising, partial curve]. Still for that read-out and setting: next, `N#C/C(=C\c1ccccc1OCc1ccc(C(=O)O)cc1)C(=O)Nc1ccc(O)cc1`: 15.8 µM [falling, partial curve, poor fit]. Consider `CCCNC(=O)c1ccc2c(c1)ncn2-c1ccccc1OC`, for which the AC50 under setting [1] is 20.6 µM [falling, partial curve]. In the case of `COC(=O)c1sc(N)c(C(=O)OC)c1COC(=O)CNS(=O)(=O)c1ccc(C)c(C)c1`, under setting [1], the half-maximal activity concentration (AC50) was 1.64 µM [rising, partial curve, poor fit]. Still for that read-out and setting: under `C=CCn1c(SCC(=O)Nc2nncs2)nnc1-c1ccco1` stands 2.82 µM [rising, partial curve, poor fit]; under `CCc1nc2ccccc2c(C(=O)OCC(=O)Nc2ccc(S(=O)(=O)N3CCOCC3)cc2)c1C`, 12.6 µM [falling, partial curve, poor fit]. Same read-out and setting: under `O=C(Nc1ccccc1)c1ccc2nsnc2c1` stands 11.2 µM [falling, partial curve]. With `CCCn1c(=O)c2[nH]c(C3CCCC3)nc2n(CCC)c1=O`, the concentration at half-maximal activity (AC50) under setting [2] is 0.126 µM [rising, full curve, poor fit].

Turning to `CCOC(=O)N1CCC(NC(=O)c2cccc3c2C(=O)N(CCOC)C3)CC1`, the AC50 under setting [1] was 6.51 µM [falling, single point]. The same measure, in the same setting: next, `COc1cccc(N2C(=O)C(Cc3c[nH]c4ccccc34)NC2=S)c1` (stereo not given): 23.1 µM [falling, single point]. As for `COc1ccc(C(=O)COC(=O)CCn2nnc(-c3cccs3)n2)cc1`, under setting [1], the half-maximal activity concentration (AC50) was 8.2 µM [rising, partial curve].

With `C/C(=N\NS(=O)(=O)c1cccc([N+](=O)[O-])c1)c1cc2ccccc2o1`, the AC50 under setting [1] was 20.6 µM [falling, single point]. As for `Fc1ccc(/C=N/NC(=S)Nc2cccnc2)cc1F`, the concentration at half-maximal activity (AC50) runs as follows: under setting [1], 5.01 µM [rising, single point]; under setting [2], 5.62 µM [falling, single point].
